For at least one compound, name, drawing or mass did not settle the structure.
What was measured:
HUVEC [1] = format: cell-based; settings: wortmannin 100 nM; LY294002 20 μM; added 1 hour before stimulation
Method: To determine the effect of spheroid culture on cell viability, spheroids and fibronectin-adherent HUVEC were recovered between 6 and 72 hours after plating, serially diluted and further cultured for an additional 48 hours before relative cell number was determined. A shift-to-the left or a flattening of the dilution curve indicates decreased viability.
To test whether integrins modulate TNF-induced apoptosis, we cultured HUVEC on fibronectin (integrin-dependent adhesion) or as spheroids (integrin-independent adhesion) in the absence or presence of TNF (200 ng/ml) and of IFNγ (330 ng/ml), an enhancer of TNF cytotoxicity (Dealtry et al., Eur. J. Immunol. 17, 689-693 (1987)). […] To examine the effect of TNF±IFNγ on cell survival we determined the viability of untreated and treated cultures. […]
For survival, HUVEC spheroids plated at 1×10^6 cells/ml in 1% BSA-coated 24 mm wells, or adherent cells plated at 4×10^5 cells in 3 μg/ml fibronectin-coated 35 mm wells of non-tissue culture plates (Evergreen Scientific), were stimulated with TNFα (200 ng/ml=10^4 U/ml)±IFNγ (330 ng/ml=10^4 U/ml). […] Relative cell number was assessed 48 hours later by measuring MTT conversion during the last 4 hours of culture. […]

HUVEC [2] = assay: Detection of apoptotic HUVEC in culture (YoPro-1 staining); format: cell-based, human; settings: wortmannin 100 nM; LY294002 20 μM; added 1 hour before stimulation
Method: To test whether integrins modulate TNF-induced apoptosis, we cultured HUVEC on fibronectin (integrin-dependent adhesion) or as spheroids (integrin-independent adhesion) in the absence or presence of TNF (200 ng/ml) and of IFNγ (330 ng/ml), an enhancer of TNF cytotoxicity (Dealtry et al., Eur. J. Immunol. 17, 689-693 (1987)). […] In contrast, spheroids treated with TNF±IFNγ increased uptake of YoPro-1 (an increase suppressed by caspase inhibitors BOC, Z-VAD, IETD and DVED), DNA fragmentation, caspase-3 activation and cleavage of PARP (FIG. 2a, 2b and data not shown). To examine the effect of TNF±IFNγ on cell survival we determined the viability of untreated and treated cultures. […] Treatment with IFNγ alone was not cytotoxic (data not shown). HUVEC adhere to immobilized fibronectin via αVβ3 and α5β1 integrins (Rüegg et al., Nature Med. 4, 408-414 (1998)). […]
For morphological evaluation, spheroids were embedded in Epon (Fluka Chemie) and thick sections were stained with 1% Methylene/Azur blue. […] The apoptosis index was determined by calculating the ratio between the green (TUNEL staining of fragmented DNA) and red (propidium iodide staining by total DNA) pixels. Number of analyzed spheroids per condition were: C, 31; T, 21; TI, 12. […] Cultures were viewed by inverted fluorescence microscopy (Leica DM IRB, Heerbrugg, Switzerland). […]

| SMILES | survival of fibronectin-adherent cells exposed to TNF±IFNγ with PI-3 kinase inhibitor (HUVEC [1]) | apoptosis of fibronectin-adherent cells exposed to TNF±IFNγ with PI-3 kinase inhibitor (HUVEC [2]) |
| --- | --- | --- |
| COC[C@H]1OC(=O)c2coc3c2[C@@]1(C)C1=C(C3=O)[C@@H]2CCC(=O)[C@@]2(C)C[C@H]1OC(C)=O [wortmannin] | decreased survival | increased apoptosis |
| O=c1cc(N2CCOCC2)oc2c(-c3ccccc3)cccc12 [LY294002] | – | increased apoptosis |
